Primary screen of a compound library

Values are the deposited “Percent Effect”, in %. The controls that fix the scale are not given in the record; negative values are as filed. The compounds are a random part of those screened. A dash means the value is not listed here; it may have been measured.

T. brucei: 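Whole-parasite assay of Trypanosoma brucei over 72 hours; the read-out is not stated. Tested at 30 µM. Higher reads as stronger inhibition (inferred: compounds with an IC50 in retests scored well above the rest). Values scatter widely below zero; nearly all retest evidence comes from the higher of the two concentrations used. Of about 64,000 compounds tested this way, about 940 (1.5%) reached 50% or more in at least one test.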
Toxoplasma: 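Assay of Toxoplasma gondii numbers, read through their beta-galactosidase reporter with a colour substrate. Concentration: 10 µM. Higher reads as fewer parasites (inferred from which compounds were picked for retests). Size under these conditions: about 67,000 compounds, about 260 of them at 50% or above in at least one test.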

structure,T. brucei,Toxoplasma
NC(=O)C1(c2cnccn2)CCCN1Cc1ccncc1 (centres undefined),4.347,5.98
CC(C)n1nc(O)c2c1NC(=O)CSC2c1cnn(C)c1 (centres undefined),-2.636,-5.148
CCC(=O)N1CCC2(CC1)CC(N1CCOCC1)c1cc(C)ccc12.O=C(O)C(F)(F)F (centres undefined),4.8,-7.23
CCc1nc(CN2CCCC(NCc3nc(C)c(C)o3)C2)no1 (centres undefined),-,5.583
CN(C)CCN1CCC2(CCN(C(=O)c3cccnc3)CC2)C1=O,-25.69,7.094
O=C(Nc1ccc(-c2csnn2)cc1)N1CCN2CCCCC2C1 (centres undefined),-1.221,-8.085
Cc1ccc(C(=O)NS(=O)(=O)c2ccc3c(c2)OCCCO3)o1,-44.67,5.756
Cc1nc(CN(C)C2CCN(Cc3nnc(C4CC4)o3)C2)no1 (centres undefined),-,-11.99
COc1ccc(C(=O)Nc2cccc(C(N)=O)c2)c(OC)n1,-16.91,28.8
[H][C@@]12CCCO[C@]1([H])[C@H](NS(C)(=O)=O)CN(C(=O)c1ccccn1)C2,37.63,-5.941
O=C(c1cc(C2CC2)on1)N1CCC(Oc2ncccc2Cl)CC1,7.477,0.6435
CCCOc1ccc(CC2=NC(C)(CO)CO2)cc1 (centres undefined),-73.96,18.82
O=C(CN1CCC(c2nnc(C(F)(F)F)o2)CC1)NCc1ccccc1,-38.97,-9.717
Cc1ccc2oc(N3CCN(CC(=O)NC(C)C)CC3)nc2c1,-16.23,15.94
O=C(NCC1CC1)C1CN(C(=O)Cc2cccs2)CC12CCOCC2 (centres undefined),-5.846,4.433
Nc1ccnc(N2CCC(c3nccn3CC3CC3)CC2)n1,-46.67,15.86
CSc1ccc(C)c(C(=O)N2CCCC(n3cncn3)C2)c1 (centres undefined),-,-10.32
CC(C)c1ncc2c(n1)CN(Cc1nc(-c3cccs3)no1)CC2,8.659,4.308
CC(=O)Nc1ccc(CN2CCc3[nH]cnc3C2c2nccn2C)cc1 (centres undefined),-13.71,-2.572
CN(C)CCn1nc(C2CCN(Cc3ccccc3)C2)c2cccnc21 (centres undefined),29.75,0.283
O=C1C(n2nnc(-c3cccs3)n2)CCN1CC(F)(F)F (centres undefined),3.341,-13.12
CCN1CC2(CCN(CC3CCCO3)CC2)OC1=O (centres undefined),-65.9,9.54
CCS(=O)(=O)N1CCc2c(COCc3ccncc3)cncc2C1,-65.09,-31.8
CC(C)C(NC(=O)Nc1ccc(F)cc1)C(=O)N(C)C (centres undefined),-21.08,-4.795
CC(C)Cc1ncc2c(n1)CN(c1cc(NCCO)nc(N)n1)C2,-137.8,-21.25
O=C(Cc1ccccc1)N1CCC2(CC1)COCCN2CC1CC1.O=C(O)C(F)(F)F,11.75,-6.529
[H][C@@]12CCCO[C@]1([H])[C@H](OCC(=O)N(C)C)CN2Cc1ccccc1,-21.8,-4.882
CCNC(=O)C1CCN(c2nccc(C3CCCC3)n2)C1 (centres undefined),2.761,9.555
CC1CCN(C(=O)CN(Cc2ccco2)C2CC2)CC1,-11.97,4.666
O=C1CCOC[C@]2(CN(Cc3ccccc3)C[C@H]2c2ccccc2F)N1,1.902,-11.25
COCc1nc(C)cc(Nc2ccc3c(c2)CC(=O)N3)n1,-51.37,11.39
COCCOc1cccc(CNCc2c(C)nn(C)c2N(C)C)c1,-,10.05
O=C(O)c1ccc(COc2cccc(Cl)c2)s1,-32.63,4.646
CCn1ccnc1CN1CCN(Cc2cccc(C#N)c2)CC1,-33.49,0.7339
O=C(O)C(F)(F)F.O=C(c1cscn1)N1CCC2(CN(Cc3ccsc3)C2)C1,-41.53,-11.46
CC(C(=O)NCc1ccc2c(c1)OCCO2)n1cncn1 (centres undefined),-2.879,9.932
Cc1nc(CN2CCCN(C(=O)c3ccccn3)CC2)oc1C,4.233,-8.21
CNC(=O)CS(=O)(=O)Cc1ccc(OC)c(F)c1,-24.39,-30.87
CCNc1ncc(C(=O)NCCc2ccc(C)c(C)c2)cn1,-,1.275
COc1ccc(-n2cccn2)c(CN2CCC3(CCNCC3)C2)c1,13.92,2.28
Cc1nc(C)c(CC(=O)N2C[C@@H](C(=O)O)[C@H](c3ccccc3C)C2)s1,-165.5,2.538
O=C(O)C(F)(F)F.O=C(O)C(F)(F)F.O[C@H]1CCN(Cc2ccoc2)[C@H]1Cc1cccnc1,-16.64,-1.389
CCc1ncc(C(=O)NCCN(C)S(C)(=O)=O)cn1,1.892,-30.78
Cc1oncc1C(=O)NCc1ccnc(OCC(F)(F)F)c1,-17.24,12.21
CC(C)n1ccnc1C1CCN(C(=O)c2ccccc2N(C)C)CC1,-42.41,3.812
O=C(CN1CCC2(CC1)NC(=O)c1cc(Br)ccc1N2)NC1CC1,-0.1174,-12.41
Cc1ccc(NC(=O)N2CCC(CO)(Nc3ccccc3)CC2)cc1,-12.54,14.31
CN(Cc1ccncn1)C(=O)C1(Oc2ccc(Cl)cc2)CCNCC1,-35.89,2.308
O=C(O)C(F)(F)F.O=C(c1cccc(O)c1)N1CCC2(CCN2c2ncccn2)C1 (centres undefined),-22.48,-17.36
COc1ccccc1C(=O)C1CCCN(c2cc(C#N)ccn2)C1 (centres undefined),-36.39,-1.479
O=C(CSC1=NS(=O)(=O)c2cc(F)ccc2N1)Nc1ccc(Cl)c(Cl)c1,-7.603,4.805
Cc1cnn(CC2CN(CCc3cccs3)CCO2)c1 (centres undefined),-10.41,-3.271
CN(Cc1ccncc1)CC(c1cccs1)N1CCOCC1 (centres undefined),-9.875,2.262
Cc1cc(F)ccc1OC1(C(=O)O)CCN(Cc2c[nH]cn2)CC1,-117.9,-1.521
CCN(Cc1ccccc1)C(=O)CN1CCCC(Cn2cncn2)C1 (centres undefined),14.3,-1.695
COCCCN1Cc2cccc(NC(=O)c3cc(F)ccc3F)c2C1,52.37,10
O=C1CC[C@@H](C(=O)N2CCC(Cn3cc(C4CCCCC4)nn3)CC2)N1,8.998,-6.066
O=C(O)C(F)(F)F.[H][C@@]12CCN(CC3CCC3)[C@]1([H])CC[C@@H](C(=O)NCc1cccs1)O2,-31.49,-8.341
CCc1ccc(NC(=O)C(C)Nc2cccc3c2OCCO3)cc1 (centres undefined),-0.364,82.59
Cl.O=C(c1cccnc1N1CCN(CCO)CC1)N1CCCC1,-22.16,8.283
CC(C)CN1CCn2c(nc3cc(C(=O)NC(C)C)ccc32)C1,-,6.994
CC1(NC(=O)CC2CCc3ccccc32)CCOCC1 (centres undefined),-42.72,-2.709
N#Cc1ccccc1CN1CCC(c2nccn2CC(N)=O)CC1,-71.09,5.471
CN(Cc1nncn1C)c1nccc(C2CCCC2)n1,-74.57,0.2378
CC(C)(C)C(O)CN1CCN(Cc2cccc(C#N)c2)CC1 (centres undefined),-238.9,-5.128
O=C(O)C(F)(F)F.O=C(O)C(F)(F)F.[H][C@@]12CCN(c3nncs3)[C@@]1([H])CCN2Cc1csc(C)n1,-39.75,10.58
COC(=O)c1ccc(CN2CCN(Cc3nc(C)no3)CC2)s1,-33.74,-2.904
Cc1nc(N)nc(C)c1CC(=O)NCc1ccc2nonc2c1,-40.59,-4.744
Cc1nn(CC(=O)N2CCC(Nc3cccnn3)CC2)c(C)c1Cl,-24.11,-9.033
Cc1cn2c(CN(C)C(=O)c3cccnc3O)c(C)nc2s1,-15.3,6.467
Cc1ccc(F)c(S(=O)(=O)NCCc2nnc[nH]2)c1,45.05,1.163
COc1nccnc1N1CCC2(CC1)[C@H](O)C[C@@H]2OCCN(C)C,3.748,5.096
c1cnn(CC2CCCN2c2ncnc3ccsc23)c1 (centres undefined),5.152,6.462
CC(C)CN(c1cn[nH]c1)S(=O)(=O)c1cccc(C#N)c1,-19.58,0.05359
N#Cc1c(Cl)nsc1NCc1cccnc1OC1CCCC1,-21.26,78.06
COC(=O)c1ccc(C(=O)NS(=O)(=O)c2cncc(Br)c2)cc1,-23.62,-1.616
Cc1ccc(-c2nc(CCNC(=O)NC3CCC(O)CC3)co2)cc1 (centres undefined),17.54,-21.75
CC(NC(=O)NCCCn1cncn1)c1ccccc1F (centres undefined),-8.083,0.4614
CCC(CO)N(Cc1ccccn1)C(=O)c1ccc(C)c(Cl)c1 (centres undefined),-3.416,-1.269
Cc1nnc(-c2cccc(C#N)c2)n1C1CCN(C(C)C)C1=O (centres undefined),-39.17,-7.807
COc1ccccc1C1=NOC(CC2(C(=O)NCCO)CCOCC2)C1 (centres undefined),-28.65,11.46
CN(C)C1CCN(C(=O)NCc2ccc(Cn3cncn3)cc2)CC1,-4.035,-1.154
Cc1nc(C)n(CC2CCCCN2CC(=O)NCc2ccccn2)n1 (centres undefined),-30.64,-7.659
O=C(Nc1ccccc1Cn1cccn1)N1CCC(N2CCCC2)C1 (centres undefined),9.982,-2.387

Some entries from above, unchanged:

- Cc1nc(CN(C)C2CCN(Cc3nnc(C4CC4)o3)C2)no1 (centres undefined) : Toxoplasma: -11.99%
- Cc1ccc2oc(N3CCN(CC(=O)NC(C)C)CC3)nc2c1 : T. brucei: -16.23%; Toxoplasma: 15.94%
- O=C(O)C(F)(F)F.O=C(O)C(F)(F)F.[H][C@@]12CCN(c3nncs3)[C@@]1([H])CCN2Cc1csc(C)n1 : T. brucei: -39.75%; Toxoplasma: 10.58%
- O=C1CCOC[C@]2(CN(Cc3ccccc3)C[C@H]2c2ccccc2F)N1 : T. brucei: 1.902%; Toxoplasma: -11.25%
- Cc1ccc(F)c(S(=O)(=O)NCCc2nnc[nH]2)c1 : T. brucei: 45.05%; Toxoplasma: 1.163%
- CC(C)n1nc(O)c2c1NC(=O)CSC2c1cnn(C)c1 (centres undefined) : T. brucei: -2.636%; Toxoplasma: -5.148%

The values are deposited in ChEMBL (CHEMBL3988442, “University of Dundee, Small-Polar-MMV Screening Library” (2021)).